# Percent effect of library compounds

Protein sequences, listed by entry. Tags and fused reporters are not part of them. Residues count along the entry.
UniProt I6X8D2, whole entry: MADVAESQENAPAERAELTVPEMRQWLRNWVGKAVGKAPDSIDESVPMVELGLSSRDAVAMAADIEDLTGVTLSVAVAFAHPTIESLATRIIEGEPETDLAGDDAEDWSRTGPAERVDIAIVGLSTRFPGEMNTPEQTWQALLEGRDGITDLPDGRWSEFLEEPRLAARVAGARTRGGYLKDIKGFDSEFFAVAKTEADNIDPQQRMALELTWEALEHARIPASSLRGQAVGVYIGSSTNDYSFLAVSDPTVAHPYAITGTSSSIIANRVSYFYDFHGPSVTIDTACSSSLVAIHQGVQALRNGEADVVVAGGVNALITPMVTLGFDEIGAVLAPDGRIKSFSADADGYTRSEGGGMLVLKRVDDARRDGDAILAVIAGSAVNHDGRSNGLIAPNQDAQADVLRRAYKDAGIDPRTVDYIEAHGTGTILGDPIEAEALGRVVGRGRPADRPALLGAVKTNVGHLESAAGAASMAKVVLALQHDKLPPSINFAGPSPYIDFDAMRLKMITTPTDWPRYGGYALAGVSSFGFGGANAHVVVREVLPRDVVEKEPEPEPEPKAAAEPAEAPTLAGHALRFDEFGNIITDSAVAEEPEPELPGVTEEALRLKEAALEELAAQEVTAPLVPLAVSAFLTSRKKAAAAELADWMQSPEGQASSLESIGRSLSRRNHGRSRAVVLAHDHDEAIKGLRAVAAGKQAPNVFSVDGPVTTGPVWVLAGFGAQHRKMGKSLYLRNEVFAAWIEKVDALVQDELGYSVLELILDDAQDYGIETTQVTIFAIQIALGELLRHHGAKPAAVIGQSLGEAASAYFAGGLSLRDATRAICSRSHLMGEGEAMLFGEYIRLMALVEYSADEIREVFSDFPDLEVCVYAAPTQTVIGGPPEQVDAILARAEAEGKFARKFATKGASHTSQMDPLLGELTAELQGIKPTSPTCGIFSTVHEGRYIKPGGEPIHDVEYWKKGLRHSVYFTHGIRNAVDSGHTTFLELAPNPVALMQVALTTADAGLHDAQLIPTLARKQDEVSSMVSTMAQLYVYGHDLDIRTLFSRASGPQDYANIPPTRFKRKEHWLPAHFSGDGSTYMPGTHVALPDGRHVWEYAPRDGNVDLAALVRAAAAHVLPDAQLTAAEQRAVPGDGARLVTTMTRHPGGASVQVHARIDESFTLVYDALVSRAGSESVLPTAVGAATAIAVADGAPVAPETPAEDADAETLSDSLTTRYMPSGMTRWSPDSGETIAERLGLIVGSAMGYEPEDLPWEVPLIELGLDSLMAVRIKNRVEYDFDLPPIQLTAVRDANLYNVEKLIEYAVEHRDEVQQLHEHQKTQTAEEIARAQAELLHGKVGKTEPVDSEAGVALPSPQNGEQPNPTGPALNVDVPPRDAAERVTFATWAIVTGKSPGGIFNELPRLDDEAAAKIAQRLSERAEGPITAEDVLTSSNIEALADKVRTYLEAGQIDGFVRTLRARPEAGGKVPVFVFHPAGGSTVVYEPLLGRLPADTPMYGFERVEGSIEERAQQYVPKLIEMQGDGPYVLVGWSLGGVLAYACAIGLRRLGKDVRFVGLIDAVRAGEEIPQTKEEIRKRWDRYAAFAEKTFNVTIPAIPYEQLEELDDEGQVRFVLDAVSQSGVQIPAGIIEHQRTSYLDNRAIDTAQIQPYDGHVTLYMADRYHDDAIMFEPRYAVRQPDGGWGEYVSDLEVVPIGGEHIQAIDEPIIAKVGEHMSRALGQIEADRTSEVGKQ
UniProt Q8IDJ8, 1-583: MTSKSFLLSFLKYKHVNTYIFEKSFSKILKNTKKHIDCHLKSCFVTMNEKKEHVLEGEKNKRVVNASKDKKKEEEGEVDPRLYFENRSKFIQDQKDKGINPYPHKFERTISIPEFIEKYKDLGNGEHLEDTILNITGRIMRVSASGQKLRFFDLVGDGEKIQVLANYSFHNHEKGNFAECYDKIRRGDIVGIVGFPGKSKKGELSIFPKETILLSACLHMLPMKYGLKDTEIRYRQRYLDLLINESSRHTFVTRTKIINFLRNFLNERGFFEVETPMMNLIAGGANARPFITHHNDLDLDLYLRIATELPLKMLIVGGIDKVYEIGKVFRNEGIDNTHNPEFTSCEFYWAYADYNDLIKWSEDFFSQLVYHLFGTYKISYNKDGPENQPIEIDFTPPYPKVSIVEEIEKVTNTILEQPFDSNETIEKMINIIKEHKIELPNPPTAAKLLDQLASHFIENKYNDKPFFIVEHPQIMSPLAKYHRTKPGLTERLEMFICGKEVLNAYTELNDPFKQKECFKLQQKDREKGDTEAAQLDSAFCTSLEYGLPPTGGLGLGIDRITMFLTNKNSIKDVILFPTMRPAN
UniProt P9WNZ1, whole entry: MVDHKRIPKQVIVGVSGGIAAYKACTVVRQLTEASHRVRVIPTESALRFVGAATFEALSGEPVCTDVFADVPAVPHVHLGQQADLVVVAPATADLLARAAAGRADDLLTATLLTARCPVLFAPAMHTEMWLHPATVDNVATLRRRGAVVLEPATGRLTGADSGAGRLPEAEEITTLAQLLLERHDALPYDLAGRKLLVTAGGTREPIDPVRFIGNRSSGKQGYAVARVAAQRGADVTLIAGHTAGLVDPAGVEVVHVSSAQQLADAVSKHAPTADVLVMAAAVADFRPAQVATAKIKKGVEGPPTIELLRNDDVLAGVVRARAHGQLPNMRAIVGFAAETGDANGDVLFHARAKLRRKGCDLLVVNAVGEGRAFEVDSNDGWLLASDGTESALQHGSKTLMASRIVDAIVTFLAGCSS

Data taken from ChEMBL document CHEMBL3988442, “University of Dundee, Small-Polar-MMV Screening Library” (2021).

A: 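Polyketide synthase Pks13, Mycobacterium tuberculosis (UniProt I6X8D2). Enzyme assay of the thioesterase domain of polyketide synthase 13; the read-out is not stated. Tested at 30 µM. Higher reads as stronger inhibition (inferred from which compounds were picked for retests). Size under these conditions: about 67,000 compounds, about 300 of them at 50% or above in at least one test.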
B: 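Lysine-tRNA ligase, Plasmodium falciparum 3D7 (UniProt Q8IDJ8). Enzyme assay of the cytosolic lysyl-tRNA synthetase in 384-well plates, read by luminescence. Concentration: 30 µM. Higher reads as stronger inhibition, judged from the few compounds that gave an IC50. Size under these conditions: about 69,000 compounds, about 49 of them at 50% or above in at least one test.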
C: 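Coenzyme A biosynthesis protein CoaBC, Mycobacterium tuberculosis (UniProt P9WNZ1). Enzyme assay of CoaBC with a phosphate dye (Biomol Green) read at 650 nm. Compounds at 30 µM. Direction is inferred from only a few compounds that gave an IC50; most scored high, so higher reads as stronger inhibition. Most strong results did not repeat in a second test. About 67,000 compounds were tested under these conditions; 0.06% (about 40) showed 50% or more at least once.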

Each number is a percent effect as filed. The controls that fix the scale are not given in the record; negative values are as filed. This is an unselected part of the compounds tested. A dash means the value is not listed here; it may have been measured.

SMILES	A	B	C
Cc1nc(N(C)C)ncc1C(=O)N[C@H]1Cc2ccccc2[C@@H]1N	-23.67%	8.728%	-2.273%
CC(C)c1nc2c(n1C)CCN(CCc1ccccn1)C2	-28.54%	0.7351%	-
CO[C@@]1(C)C[C@@H](O)C12CCN(C(=O)c1ccccc1C(C)=O)CC2	-	0.6613%	-0.2165%
CN(C)Cc1cn(-c2ccccc2C(=O)NCCC2CCCN2C)cn1 (configuration not stated)	-5.819%	-1.571%	-13.32%
CN(C)c1cnn(Cc2nc3ccccc3n2C)c(=O)c1	-19.39%	1.863%	3.21%
O=C(C1CC1)N1CCC2(CC1)CNCCO2	10.99%	-0.2922%	-
CC(C)C(O)C1(CNC(=O)Nc2ccc(CN3CCOC3=O)cc2)CC1 (configuration not stated)	-20.38%	0.01142%	-8.481%
COc1ccc(-c2nccn2CC(O)CN2CCCC2)c(F)c1 (configuration not stated)	-32.93%	-0.4996%	15.6%
CNC(=O)c1cc(-c2ccccc2OC)[nH]n1	-2.024%	1.957%	4.126%
CCc1cnc(N2CCC3(CC(=O)N(Cc4csc(C)n4)C3)C2)nc1 (configuration not stated)	10.9%	3.984%	10.28%
O=c1c(-c2ccnc(NC3CCOCC3)n2)cnc2sc(Cl)cn12	-2.478%	7.118%	-0.6519%
NS(=O)(=O)Cc1ccc(CNC(=O)NCC2CCOC2)cc1 (configuration not stated)	-19.33%	-0.09456%	5.641%
CCOc1ccc(OCCN2CCC(N3CCNC3=O)CC2)cc1	-12.16%	1.197%	2.117%
CC(C)c1cc(CN(C)C(=O)CN2CCC(C(N)=O)CC2)no1	-6.286%	4.942%	1.928%
O=C(Cn1ccc2ncccc2c1=O)N1CCSCC1	-10.46%	3.164%	7.975%
CN(CC(N)=O)S(=O)(=O)c1ccc(F)cc1F	-34.83%	3.604%	3.273%
CCCc1nc(CN(CC)C(=O)c2ccc(S(C)(=O)=O)cc2)no1	-39.69%	3.864%	3.169%
CCN(CC1CCCO1)C(=O)Nc1cccc(N2CCOCC2)c1 (configuration not stated)	-21%	0.2785%	0.489%
CN(CCn1nc2ccccn2c1=O)CC(=O)NC1CC1	-24.45%	3.656%	6.073%
O=C(Nc1ccc(CC(=O)N2CCSCC2)cc1)NC1CC1	5.169%	2.338%	4.156%
CCC1=NN2C(=N)/C(=C\c3cccn3-c3cccc(Cl)c3)C(=O)N=C2S1	-43.21%	-0.9223%	-6.719%
CN(C)CCNC(=O)c1ccc(OC2CCN(C(=O)CO)CC2)c(Cl)c1	-28.07%	6.329%	-15.88%
COc1c[nH]c(C(=O)Nc2nc(C)cs2)cc1=O	3.557%	5.601%	-1.768%
CCc1noc(CNc2cccc(C(=O)N3CCSCC3)c2)n1	-4.113%	-0.4754%	-2.784%
Cc1nc(CN(C)C2CCN(CCc3ccccn3)C2)no1 (configuration not stated)	-5.535%	-2.318%	-9.92%
CN1CCOCC2(CCCN(C(=O)c3ccccc3F)C2)C1 (configuration not stated)	-9.021%	2.498%	3.043%
O=S(=O)(CC1CCCN1S(=O)(=O)C1CC1)c1ccccc1 (configuration not stated)	-2.345%	0.8293%	2.179%
CS(=O)(=O)CCCC(=O)Nc1cc(-c2cccc(F)c2F)n[nH]1	-3.226%	5.022%	9.091%
COc1ccccc1CNC1(CCO)CCOCC1	-0.2885%	-5.724%	-
COc1ccc(C(=O)C2CCCN(Cc3ccncc3)C2)cc1OC (configuration not stated)	-32.87%	2.462%	4.342%
Cn1c(Cn2ccnc2)nnc1C1CCN(C(=O)C2(C)CC2)CC1	-14.68%	6.437%	-1.505%
COc1cc(NCc2ccncc2)c(-c2nn[nH]n2)cc1OC	4.013%	4.597%	0.2551%
COc1cccc(CNc2cc(CO)ccc2Cl)c1	40.56%	1.06%	3.659%
CCOC(=O)c1coc(N2CCN(C(=O)c3cccc(OC)c3)CC2)n1	3.051%	7.275%	-0.7371%
Cc1nc(N2CCOCC2)ncc1-c1cc(O)nc(N2CCCCC2)n1	-15.39%	-3.426%	-20.55%
CC(Nc1nc(-c2ccccc2)nc2c1CCNCC2)c1nccs1 (configuration not stated)	10.57%	0.975%	0.8373%
CCn1cc(CN2CCC(O)(Cn3nc(C)ccc3=O)CC2)cn1	11.48%	2.978%	0.2451%
Cc1nn(CC(=O)N2CCN(c3ccccc3F)CC2)c(C)c1Cl	-28.29%	-2.145%	2.273%
CCC1=N[C@@]2(CC[C@@H]3CN(C(=O)NCc4ccccc4C)C[C@@H]32)C(=O)N1	-2.008%	5.524%	3.043%
CN(Cc1ccco1)C(=O)C1CSCN1C(=O)c1cccnc1 (configuration not stated)	-4.603%	0%	1.503%
Cc1cc2nc(C(C)C)cc(N3CCN(c4ccc(O)cc4)CC3)n2n1	6.081%	2.712%	3.995%
CC(Cn1ccnc1)NC(=O)NCc1ccc2c(c1)OCCO2 (configuration not stated)	-25.54%	0.6749%	-0.2273%
CCn1ccnc1CN1CCC(=O)N(CC2CC2)C(C(C)C)C1 (configuration not stated)	-15.83%	-10.53%	10.15%
COC(=O)CNC(=O)c1c(-n2cnnn2)sc2c1CCCC2	1.986%	4.981%	4.684%
CC(C)NC(=O)NC[C@H]1OC[C@@H](NCc2cccs2)[C@@H]1O	23.64%	-2.105%	2.581%
O=C1CC2(CCSC2)C(=O)N1CCCc1ccccc1 (configuration not stated)	-22.24%	1.643%	1.297%
CC(C)OC(=O)N1CCC(Cc2ccc(C(=O)O)cc2)C1 (configuration not stated)	-0.4571%	-5.875%	-1.062%
Cc1cc(C)n(CC(=O)N2CCCCC2CCN2CCCC2=O)c(=O)n1 (configuration not stated)	-7.098%	0.657%	5.724%
O=C(N[C@@H]1CCN(Cc2cc3ccccc3s2)C[C@H]1O)c1cccnc1	-2.589%	5.218%	-1.786%
CC(=O)N1CCC2(CC1)C(=O)N(CC1CC1)c1ccccc12	-8.32%	0.8681%	4.111%
Cc1csc(C2CCCN(C(=O)c3ccc(=O)n(C)n3)C2)n1 (configuration not stated)	-8.931%	2.568%	-0.8811%
Cc1ccc(CN2C[C@H]3C[C@H](C(=O)Nc4cccnc4)[C@@H](C2)O3)cc1	-	1.814%	2.75%
CN(C)C(=O)CN1CCN(c2cc(N3CCCC3CO)ncn2)CC1 (configuration not stated)	-27.41%	-0.6262%	2.42%
Cc1ccc(-c2nc(CN3CCOC(c4ccccc4)C3)cs2)o1 (configuration not stated)	-1.01%	-3.284%	9.168%
O=C(Cc1ccco1)N1C[C@H]2CCC[C@@]2(COCc2cccnc2)C1	0.3639%	2.012%	4.187%
Cc1nc(C(=O)N2CC[C@@]3(C[C@H](NS(C)(=O)=O)CCO3)C2)cs1	-	4.389%	2%
CC(CC(=O)NCCCn1cccn1)c1cccnc1 (configuration not stated)	2.034%	3.591%	4.132%
Cc1ccc(C(=O)N2CCC3(CCN(Cc4ccccn4)C3=O)C2)cn1 (configuration not stated)	-12.98%	5.542%	-2.423%
O=C(CSc1ccncc1)N1CCC2(CC1)c1ccccc1CC2O (configuration not stated)	-7.999%	2.856%	-3.498%
CCCOC1CCCN(C(=O)c2ccnc(N3CCN(C)CC3)c2)C1 (configuration not stated)	-35.79%	0.1332%	4.89%
Cc1cnn(CCNCc2nc(CNC(=O)c3ccccc3)no2)c1	-18.7%	-2.056%	4.592%
CCN(C)CC1CCN(C(=O)Nc2ccc(C)cc2)C1 (configuration not stated)	-5.933%	6.754%	1.21%
CC(c1ncc(-c2ccccc2)o1)N1CCN(C(=O)N(C)C)CC1 (configuration not stated)	5.497%	-0.3883%	3.388%
COCC(=O)N1CCN(c2ccc(C(=O)OC)cc2)CC1C (configuration not stated)	-7.713%	7.174%	3.846%
Cc1nn(C)c(C)c1C1CCCN1Cc1nc2ccccc2o1 (configuration not stated)	-25.17%	-0.7235%	-4.29%
COCCn1cnc(-c2nc(C(=O)N3CCOCC3)c3ccccn23)c1	-18.18%	0.878%	0.3257%
CC(C)(C)c1nc(NS(=O)(=O)c2cccc(F)c2)no1	-4.147%	1.013%	1.908%
Cc1ccc(O)c(CN2CCn3nc(C(=O)N4CCCC4)cc3C2)n1	-4.963%	-1.42%	2.046%
N#Cc1ccc(F)c(CSCCN2CCOCC2)c1	-18.07%	1.3%	1.205%

6 of the entries, repeated:

SMILES,A,B,C
Cc1nc(N2CCOCC2)ncc1-c1cc(O)nc(N2CCCCC2)n1,-15.39%,-3.426%,-20.55%
COc1c[nH]c(C(=O)Nc2nc(C)cs2)cc1=O,3.557%,5.601%,-1.768%
N#Cc1ccc(F)c(CSCCN2CCOCC2)c1,-18.07%,1.3%,1.205%
CC(C)c1cc(CN(C)C(=O)CN2CCC(C(N)=O)CC2)no1,-6.286%,4.942%,1.928%
O=C(C1CC1)N1CCC2(CC1)CNCCO2,10.99%,-0.2922%,-
Cc1csc(C2CCCN(C(=O)c3ccc(=O)n(C)n3)C2)n1 (configuration not stated),-8.931%,2.568%,-0.8811%